These are yes or no findings as the source states them, for the method shown. Binding seen in cells or lysates may run through a third protein. A yes stands for co-enrichment or nearness to the bait. Other partners may have been found. Sequences can lack the tags named with a protein.
Target: T1, N-myc and STAT interactor (NMI) (human (endogenous in human breast cancer cells)) (UniProt Q13287)
T1 sequence: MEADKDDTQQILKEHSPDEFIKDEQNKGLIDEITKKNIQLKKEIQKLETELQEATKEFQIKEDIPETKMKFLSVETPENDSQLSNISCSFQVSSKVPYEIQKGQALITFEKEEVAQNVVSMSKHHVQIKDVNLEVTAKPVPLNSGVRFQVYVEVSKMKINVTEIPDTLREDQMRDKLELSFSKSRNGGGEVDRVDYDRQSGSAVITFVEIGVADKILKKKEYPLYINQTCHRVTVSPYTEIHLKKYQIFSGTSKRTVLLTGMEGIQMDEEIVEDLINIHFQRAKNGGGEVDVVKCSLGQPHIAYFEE
Assay: affinity purification with mass spectrometry; immunoprecipitation of NMI from cell nuclear protein extracts with anti-NMI antibody, IgG as control; precipitated proteins identified by mass spectrometry

By UniProt entry, the sequences of proteins in these tests, tags left out.
UniProt P25490: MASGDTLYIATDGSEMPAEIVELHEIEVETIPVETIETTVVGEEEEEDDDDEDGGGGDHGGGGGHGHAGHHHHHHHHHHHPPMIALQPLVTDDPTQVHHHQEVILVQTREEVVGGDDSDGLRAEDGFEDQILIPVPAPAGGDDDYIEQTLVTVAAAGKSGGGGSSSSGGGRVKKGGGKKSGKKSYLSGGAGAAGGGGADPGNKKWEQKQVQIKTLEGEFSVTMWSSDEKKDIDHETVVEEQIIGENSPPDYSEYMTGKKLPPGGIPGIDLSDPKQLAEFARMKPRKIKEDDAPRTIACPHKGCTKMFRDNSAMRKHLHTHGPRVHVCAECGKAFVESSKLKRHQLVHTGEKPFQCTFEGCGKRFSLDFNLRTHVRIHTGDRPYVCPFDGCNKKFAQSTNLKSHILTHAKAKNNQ

## YY1 (from UniProt P25490 1-414)
  binding: binds

From article PMC5520720
